From patent publication CN114478779A
No constants are given. Whether binding was seen depends on the method and setting. Some entries that bind do so weakly or less than the wild type. Tags and fused reporters may be left off the sequences shown.

The chains behind the UniProt entries cited, without tags or fusion partners. Residues count along the entry.
UniProt P51654, residues 25-559: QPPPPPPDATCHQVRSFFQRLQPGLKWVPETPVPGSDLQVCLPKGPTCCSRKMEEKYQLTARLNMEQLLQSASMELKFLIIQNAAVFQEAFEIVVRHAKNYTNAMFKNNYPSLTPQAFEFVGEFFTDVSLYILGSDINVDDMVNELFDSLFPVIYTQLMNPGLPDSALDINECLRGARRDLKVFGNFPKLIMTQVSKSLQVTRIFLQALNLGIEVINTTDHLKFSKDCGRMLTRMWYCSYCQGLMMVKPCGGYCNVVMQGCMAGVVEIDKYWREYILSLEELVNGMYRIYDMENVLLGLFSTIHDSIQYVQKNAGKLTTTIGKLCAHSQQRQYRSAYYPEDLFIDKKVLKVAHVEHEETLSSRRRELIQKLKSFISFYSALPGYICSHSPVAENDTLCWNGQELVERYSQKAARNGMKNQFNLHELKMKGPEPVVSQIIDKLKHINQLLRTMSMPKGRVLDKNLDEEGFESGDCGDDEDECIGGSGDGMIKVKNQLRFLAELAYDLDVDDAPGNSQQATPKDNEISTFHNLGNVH

B1: HuA5.2 (scFv, C末端6x His, 大肠杆菌表达) (scFv)
scFv: EVQLVESGGGLVQPGGSLRLSCAASGFTFNRYCMGWVRQAPGKGLEWVAGIDSDSGGTDYGAAVKGRATISRDNAKNSVYLQMNSLRAEDTAVYYCAKSAYGGWCGSRVAPWIDAWGQGTLVTVSSGGGGSSSELTQDPAVSVALGQTVRITCSGGGSYGWFQQKSPGQAPVTVIYDNDKRPSDIPSRFSGSASGSTASLTITGAQAEDEADYYCGSSENSYVGHVAIFGGGTKLTVLHHHHHH
B2: H-G35S (scFv, name in Kabat numbering)
scFv: EVQLVESGGGLVQPGGSLRLSCAASGFTFNRYCMSWVRQAPGKGLEWVAGIDSDSGGTDYGAAVKGRATISRDNAKNSVYLQMNSLRAEDTAVYYCAKSAYGGWCGSRVAPWIDAWGQGTLVTVSSGGGGSSSELTQDPAVSVALGQTVRITCSGGGSYGWFQQKSPGQAPVTVIYDNDKRPSDIPSRFSGSASGSTASLTITGAQAEDEADYYCGSSENSYVGHVAIFGGGTKLTVLHHHHHH
B3: H-A67F (scFv, name in Kabat numbering)
scFv: EVQLVESGGGLVQPGGSLRLSCAASGFTFNRYCMGWVRQAPGKGLEWVAGIDSDSGGTDYGAAVKGRFTISRDNAKNSVYLQMNSLRAEDTAVYYCAKSAYGGWCGSRVAPWIDAWGQGTLVTVSSGGGGSSSELTQDPAVSVALGQTVRITCSGGGSYGWFQQKSPGQAPVTVIYDNDKRPSDIPSRFSGSASGSTASLTITGAQAEDEADYYCGSSENSYVGHVAIFGGGTKLTVLHHHHHH
B4: H-V78L (scFv, name in Kabat numbering)
scFv: EVQLVESGGGLVQPGGSLRLSCAASGFTFNRYCMGWVRQAPGKGLEWVAGIDSDSGGTDYGAAVKGRATISRDNAKNSLYLQMNSLRAEDTAVYYCAKSAYGGWCGSRVAPWIDAWGQGTLVTVSSGGGGSSSELTQDPAVSVALGQTVRITCSGGGSYGWFQQKSPGQAPVTVIYDNDKRPSDIPSRFSGSASGSTASLTITGAQAEDEADYYCGSSENSYVGHVAIFGGGTKLTVLHHHHHH

These binders were tested against GPC3蛋白 (实施例6 ELISA包被) (UniProt P51654) (assay: ELISA, GPC3 coated, HRP-mouse anti-His detection).

| Binder | binding |
| --- | --- |
| B1 | binds |
| B2 | binds |
| B3 | binds |
| B4 | binds |
